Data from PubChem BioAssay AID485314 (National Center for Advancing Translational Sciences (NCATS), 2010).
In all, about 340,000 compounds went through this assay and about 4,500 (1.3%) were called active. Inconclusive means that the source gave no clear call. Such entries were picked first, then a sample of the others. Calls follow the shape of the dose curve; as a rule, active = well fitted inhibition curve with a large enough effect; inconclusive = small, poorly fitted or top-dose-only effect, or another doubt; inactive = no such curve, though single readings can be large or run the other way. Where the call is inconclusive, the potency comes from a doubtful curve fit.

biological target: DNA polymerase beta (Homo sapiens) (UniProt P06746); test: qHTS Assay for Inhibitors of DNA Polymerase Beta; settings: Pol beta primer extension/strand displacement, fluorescence kinetic; activity change, negative = inhibition: at 114 µM (top of the series)
Summary of the method: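 Homogeneous kinetic assay of primer extension and strand displacement by 10 nM Pol beta, preincubated 15 min at room temperature with compound before 50 nM substrate (final) was added. Read at 0 and 10 min; four-parameter Hill fit.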
% is scaled to controls: 0 for no effect and ±100 for the full control effect; potency is read from the fitted curve at half-maximal effect.

| Structure (SMILES) | Potency | activity change, negative = inhibition |
| --- | --- | --- |
| COCCCn1c(=N)c(C(=O)NC2CCCC2)cc2c(=O)n3ccccc3nc21 | inconclusive: 0.501 µM [inhibitor, partial curve] | – |
| CCc1cc(C(=O)Cc2cnn(-c3ccccc3)c2)c(O)cc1O | – | inactive: 12% |
| Cc1ccc(CCNC(=O)CCSCc2ccc(Cl)cc2)cc1 | inconclusive: 89.1 µM [inhibitor, single point] | – |
| NC(=O)C1=CN(Cc2ccc(Cl)cc2)CCC1C(F)(F)F (stereo not drawn) | inconclusive: 70.8 µM [inhibitor, single point] | – |
| O=C(CCCc1nc(-c2ccccc2Cl)no1)NC1CCCCC1 | inconclusive: 89.1 µM [inhibitor, single point] | – |
| C=CCn1c(SCc2ccc(F)cc2)nnc1-c1sc2nc(C)cc(C)c2c1N | inconclusive: 79.4 µM [inhibitor, single point] | – |
| CCN1/C(=C/c2ccc3ccc(C)cc3[n+]2CC)Sc2ccccc21 | active: 31.6 µM | – |
| COc1ccc(CCNC(=O)C(=O)NCC2OCCN2S(=O)(=O)c2ccccc2)cc1 (stereo not drawn) | inconclusive: 39.8 µM [inhibitor, partial curve] | – |
| O=C(CN1C(=O)CC(c2ccco2)Sc2ccccc21)NCC1CCCO1 (stereo not drawn) | inconclusive: 31.6 µM [inhibitor, full curve] | – |
| O=C(NC1CCCC1)c1ccc(COCC(F)(F)C(F)F)o1 | – | inactive: 29.2% |
| CCCNC(=O)COC(=O)/C=C/c1ccco1 | inconclusive: 35.5 µM [inhibitor, partial curve] | – |
| CCCCC(=O)Nc1ccc(C(=O)NNC(=O)c2ccc(C)c(Br)c2)cc1 | inconclusive: 12.6 µM [inhibitor, partial curve] | – |
| CCCCCC(=O)NNC(=O)Cc1ccc([N+](=O)[O-])cc1 | – | inactive: -12% |
| COc1ccc(C2CC(=O)N3CN(C4CCCCC4)CSC3=C2C#N)cc1 (stereo not drawn) | – | inactive: -1.87% |
| COc1ccc(-c2nn(-c3ccccc3)cc2/C=C(\CC(=O)O)c2nc3ccccc3s2)cc1OC | inconclusive: 1.26 µM [inhibitor, partial curve, poor fit] | – |
| Cc1oc(-c2ccc3ccccc3c2)nc1CN(C)C(C)c1ccncn1 (stereo not drawn) | inconclusive: 50.1 µM [inhibitor, partial curve] | – |
| Cn1c(=O)c(/C=C/c2ccccc2)nc2ccccc21 | inconclusive: 39.8 µM [inhibitor, full curve, poor fit] | – |
| CC(=O)Nc1ccc(S(=O)(=O)N2CCN(CCCOc3cc(C)ccc3C)CC2)cc1 | inconclusive: 89.1 µM [inhibitor, single point] | – |
| O=C(NCCC1=CCCCC1)c1ccc2c(c1)N(Cc1ccccc1)C(=O)c1ccccc1S2(=O)=O | inconclusive: 1.12 µM [inhibitor, full curve] | – |
| O=C(N/N=C/c1cccnc1)c1ccccc1OCc1ccc(Cl)cc1 | – | inactive: 2.52% |
| Cc1nc(N2CCC(C)CC2)c(C#N)c(C)c1[N+](=O)[O-] | inconclusive: 79.4 µM [inhibitor, single point] | – |
| COc1ccccc1N1CCN(C(=O)CSc2nc3ccccc3o2)CC1 | inconclusive: 70.8 µM [inhibitor, single point] | – |

3 entries from above, ordered by molar mass, ascending:

| Structure (SMILES) | Potency | activity change, negative = inhibition |
| --- | --- | --- |
| Cn1c(=O)c(/C=C/c2ccccc2)nc2ccccc21 | inconclusive: 39.8 µM [inhibitor, full curve, poor fit] | – |
| Cc1nc(N2CCC(C)CC2)c(C#N)c(C)c1[N+](=O)[O-] | inconclusive: 79.4 µM [inhibitor, single point] | – |
| O=C(NC1CCCC1)c1ccc(COCC(F)(F)C(F)F)o1 | – | inactive: 29.2% |

(more compounds)

| Structure (SMILES) | Potency | activity change, negative = inhibition |
| --- | --- | --- |
| Cc1ccc(NC(=S)NCC23C=CC(O2)C2C(=O)N(c4ccc(C)cc4)C(=O)C23)cc1 (stereo not drawn) | inconclusive: 89.1 µM [inhibitor, single point] | – |
| COc1ccc(CCNC(=O)C(=O)NCC(c2cccs2)S(=O)(=O)c2ccccc2)cc1 (stereo not drawn) | inconclusive: 89.1 µM [inhibitor, single point] | – |
| COc1cccc(-c2nc(CS(=O)CC(=O)N3CCN(c4cccc(C(F)(F)F)c4)CC3)c(C)o2)c1 (stereo not drawn) | inconclusive: 89.1 µM [inhibitor, single point] | – |
| Cc1ccc(Cl)cc1NC(=O)CCS(=O)(=O)c1ccc(Br)s1 | inconclusive: 20 µM [inhibitor, partial curve, poor fit] | – |
| O=C(NN=C1CCCC1)c1ccc(O)cc1O | – | inactive: 0.35% |
| C=CCN1C(=O)/C(=C\C=C2\N(C)c3ccccc3C2(C)C)SC1=S | inconclusive: 35.5 µM [inhibitor, partial curve, poor fit] | – |
| Cc1cc(-c2cc(-c3ccc(Cl)cc3)nc(N)c2C#N)co1 | inconclusive: 79.4 µM [inhibitor, single point] | – |
| O=C1N=C(N2CCCC2)S/C1=C\c1ccccc1 | – | inactive: 7.94% |
| CCOc1ccc(-c2ccc(CO)o2)cc1N | inconclusive: 89.1 µM [inhibitor, single point] | – |
| CCc1cccc(NC(=O)CCS(=O)(=O)c2ccc(C)cc2)c1 | – | inactive: 25% |
| Cc1ccc2[nH]cc(CCNC(=O)Nc3ccccc3)c2c1 | inconclusive: 0.141 µM [inhibitor, full curve, poor fit] | – |
| CCOC(=O)c1c(C)oc2nc(C)nc(NCCCN3CCN(c4cccc(C)c4)C(C)C3)c12 (stereo not drawn) | – | inactive: -23.6% |
| Cc1ccc2[nH]c(-c3ccccc3)c(CN3CCN(C)CC3)c(=O)c2c1 | inconclusive: 0.141 µM [inhibitor, full curve, poor fit] | – |
| Cc1ccc(-n2cc(CN3CCN(Cc4nccn4C)CC3)c(-c3ccc(F)cc3)n2)cc1 | inconclusive: 0.501 µM [inhibitor, full curve, poor fit] | – |
| O=C(NCc1ccco1)C(c1ccc(F)cc1)N(CC1CCCO1)C(=O)Cn1nnc2ccccc21 (stereo not drawn) | active: 0.316 µM | – |
| CN(CC(=O)NCCN1CCN(Cc2ccccc2)CC1)S(=O)(=O)c1cccc2nsnc12 | inconclusive: 8.91 µM [inhibitor, full curve] | – |
| CCOC(=O)NNc1ccc(C(F)(F)F)cn1 | inconclusive: 3.55 µM [inhibitor, single point] | – |
| Cc1ccc(-c2nnc(Nc3ccc4c(c3)nc(C)n4C)c3ccccc23)cc1 | inconclusive: 25.1 µM [inhibitor, full curve, poor fit] | – |
| CC(=O)c1cccc(Nc2nc3ccccc3n3cnnc23)c1 | inconclusive: 79.4 µM [inhibitor, single point] | – |
| CCN(CC)c1ccc(NC(=S)NC(=O)Cc2ccccc2)cc1 | inconclusive: 39.8 µM [inhibitor, single point] | – |
| Cc1cc(Nc2ccc(C)c(Cl)c2)nc(N2CCOCC2)n1 | inconclusive: 100 µM [inhibitor, single point] | – |
